Data reported in the supplement of paper PMC10470496.
Structures can show the parent of a compound that is named as a salt. This is one part of the list. Single values are uncertain, as repeats are few or missing.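 Three clinical Candida auris isolates (clades III, IV and I) from the CDC resistance isolate bank were grown in RPMI-1640 at 35°C. Growth was background-corrected OD600 relative to same-plate vehicle-only wells. Hits required over 50% inhibition in at least two strains and a plate-corrected B-score above 0.1.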

What was measured:
Test in all cases: growth relative to vehicle control (OD600 ratio) (fraction); higher = less inhibition
Conditions in all cases: 24 h
C. auris AR-384 = system: C. auris AR-384
C. auris AR-386 = system: C. auris AR-386
C. auris AR-387 = system: C. auris AR-387

| SMILES | growth (C. auris AR-384; 1 µM) | growth (C. auris AR-384; 10 µM) | growth (C. auris AR-386; 1 µM) | growth (C. auris AR-386; 10 µM) | growth (C. auris AR-387; 1 µM) | growth (C. auris AR-387; 10 µM) |
| --- | --- | --- | --- | --- | --- | --- |
| c1ccc2c(c1)CCCC2C1=NCCN1 (stereo unspecified) [Tetrahydrozoline HCl] | 1.02 | 0.85 | 0.96 | 0.76 | 0.83 | 1.03 |
| Clc1ccccc1CN1CCc2sccc2C1 [Ticlopidine HCl] | 0.75 | 1.22 | 0.92 | 0.99 | 0.79 | 1.11 |
| CC(C)(Oc1ccc(Cl)cc1)C(=O)OCCOC(=O)c1cccnc1 [Etofibrate] | 0.93 | 0.82 | 0.84 | 0.85 | 0.8 | 0.65 |
| CO[C@H]1C[C@@H]2CC[C@@H](C)[C@@](O)(O2)C(=O)C(=O)N2CCCC[C@H]2C(=O)O[C@H]([C@H](C)C[C@@H]2CC[C@@H](OC(=O)C(C)(CO)CO)[C@H](OC)C2)CC(=O)[C@H](C)/C=C(\C)[C@@H](O)[C@@H](OC)C(=O)[C@H](C)C[C@H](C)/C=C/C=C/C=C/1C | 0.15 | 0.13 | 0.22 | 0.14 | 0.12 | 0.1 |
| CS(=O)(=O)Nc1ccc([N+](=O)[O-])cc1Oc1ccccc1 [Nimesulide] | 0.85 | 0.91 | 0.82 | 0.58 | 0.71 | 0.8 |
| CC(C)Oc1ccc2c(=O)c(-c3ccccc3)coc2c1 [Ipriflavone (Osteofix)] | 0.96 | 0.9 | 0.91 | 0.98 | 1.05 | 1.09 |
| O=C(O)C1(C(=O)O)CCC1.[NH2-].[NH2-].[Pt+2] [Carboplatin] | 0.71 | 1.05 | 0.78 | 1.13 | 0.82 | 0.91 |
| NC(=O)[C@@H]1CC[C@@H]2CN1C(=O)N2OS(=O)(=O)O [Avibactam sodium] | 1.05 | 0.74 | 1.02 | 0.68 | 0.6 | 0.65 |
| O=C(O)CSCC(=O)NC1CCSC1=O (stereo unspecified) [Erdosteine] | 0.73 | 0.99 | 0.8 | 1.03 | 0.9 | 0.76 |
| CCOC(=O)c1ccc(C#Cc2ccc3c(c2)C(C)(C)CCS3)nc1 [Tazarotene] | 1.34 | 1.14 | 0.98 | 0.98 | 0.97 | 1 |
| NCCCC(O)(P(=O)(O)O)P(=O)(O)O [Alendronate sodium trihydrate] | 0.73 | 1.28 | 1.21 | 0.97 | 1.08 | 0.79 |
| CC(C)OC(=O)OCOP(=O)(CO[C@H](C)Cn1cnc2c(N)ncnc21)OCOC(=O)OC(C)C [Tenofovir Disoproxil Fumarate] | 1.04 | 0.72 | 0.74 | 0.99 | 1 | 1.1 |
| CCCc1ncc(C[n+]2ccccc2C)c(N)n1 [Amprolium HCl] | 0.93 | 1.09 | 0.88 | 1.04 | 0.83 | 1.08 |
| COc1cc(C(C)=O)ccc1OCCCN1CCC(c2noc3cc(F)ccc23)CC1 [Iloperidone] | 1.04 | 0.74 | 0.64 | 0.72 | 0.8 | 0.95 |
| C[C@H](Cc1cc2c(c(C(N)=O)c1)N(CCCO)CC2)NCCOc1ccccc1OCC(F)(F)F [Silodosin] | 1.06 | 0.99 | 1.01 | 1.21 | 0.91 | 1.01 |
| CCC/N=C1\S/C(=C\c2ccc(OC[C@H](O)CO)c(Cl)c2)C(=O)N1c1ccccc1C [Ponesimod] | 1.11 | 1.32 | 1.09 | 1 | 0.77 | 0.81 |
| CC[C@H](C)[C@H](N)C1=N[C@H](C(=O)N[C@@H](CC(C)C)C(=O)N[C@H](CCC(=O)O)C(=O)N[C@H](C(=O)N[C@H]2CCCCNC(=O)[C@H](CC(N)=O)NC(=O)[C@@H](CC(=O)O)NC(=O)[C@H](Cc3cnc[nH]3)NC(=O)[C@@H](Cc3ccccc3)NC(=O)[C@H]([C@@H](C)CC)NC(=O)[C@@H](CCCN)NC2=O)[C@@H](C)CC)CS1 [Bacitracin] | 0.88 | 0.82 | 0.45 | 0.7 | 0.65 | 1.01 |
| COc1ccc(CCN(C)CCCC(C#N)(c2ccc(OC)c(OC)c2)C(C)C)cc1OC (stereo unspecified) [Verapamil HCl] | 0.93 | 0.8 | 0.79 | 0.98 | 0.9 | 0.92 |
| Nc1nc(Cl)nc2c1ncn2[C@H]1C[C@H](O)[C@@H](CO)O1 [Cladribine] | 0.74 | 0.75 | 0.71 | 0.95 | 0.82 | 0.94 |
| NS(=O)(=O)c1cc2c(cc1Cl)N=CNS2(=O)=O [Chlorothiazide] | 1.34 | 0.82 | 0.61 | 1.22 | 0.88 | 0.98 |
| CCOc1ccc2ccccc2c1C(=O)N[C@@H]1C(=O)N2[C@@H]1SC(C)(C)[C@@H]2C(=O)O [Nafcillin Sodium] | 0.92 | 0.83 | 0.82 | 0.98 | 0.85 | 0.8 |

| SMILES | growth (C. auris AR-384; 1 µM) | growth (C. auris AR-384; 10 µM) | growth (C. auris AR-386; 1 µM) | growth (C. auris AR-386; 10 µM) | growth (C. auris AR-387; 1 µM) | growth (C. auris AR-387; 10 µM) |
| --- | --- | --- | --- | --- | --- | --- |
| CC(C)C(=O)Oc1ccc(CO)cc1[C@H](CCN(C(C)C)C(C)C)c1ccccc1 [Fesoterodine Fumarate] | 0.94 | 0.87 | 0.91 | 0.77 | 0.72 | 0.7 |
| CCOC(=O)C1=C(C)NC(C)=C(C(=O)OCC)C1c1ccccc1/C=C/C(=O)OC(C)(C)C [Lacidipine] | 1.04 | 0.75 | 1.05 | 1.14 | 0.69 | 0.86 |
| CC[C@]1(O)C[C@@H]2CN(CCc3c([nH]c4ccccc34)[C@@](C(=O)OC)(c3cc4c(cc3OC)N(C)[C@H]3[C@@](O)(C(=O)OC)[C@H](OC(C)=O)[C@]5(CC)C=CCN6CC[C@]43[C@@H]65)C2)C1 [Vinblastine sulfate] | 1.25 | 0.96 | 1.06 | 1.2 | 1 | 1.09 |
| NC(=O)[C@@H]1CSSCCC(=O)N[C@@H](CCCCN=C(N)N)C(=O)NCC(=O)N[C@@H](CC(=O)O)C(=O)N[C@@H](Cc2c[nH]c3ccccc23)C(=O)N2CCC[C@H]2C(=O)N1 [Eptifibatide Acetate] | 0.55 | 0.64 | 0.7 | 0.95 | 0.81 | 0.72 |
| CC(C)C[C@H](NC(=O)CNC(=O)c1cc(Cl)ccc1Cl)B(O)O [Ixazomib (MLN2238)] | 0.94 | 1.07 | 0.81 | 1.07 | 0.72 | 1.1 |
| Cc1c(F)cc(C(=O)NC2CC2)cc1-c1ccc(C(=O)NCC(C)(C)C)cn1 | 1.04 | 1.44 | 1.05 | 1.15 | 1.03 | 1.28 |
| CCCN(CCC)S(=O)(=O)c1ccc(C(=O)O)cc1 [Probenecid] | 0.86 | 0.7 | 0.61 | 0.54 | 0.83 | 0.68 |
| C[n+]1ccccc1/C=N/O [Pralidoxime chloride] | 0.68 | 0.69 | 1.1 | 0.73 | 0.78 | 0.84 |
| CCCCC[C@H](O)/C=C/[C@H]1[C@H](O)CC(=O)[C@@H]1CCCCCCC(=O)O [Alprostadil] | 0.96 | 0.82 | 0.7 | 0.69 | 0.68 | 0.92 |
| CC(NCCc1ccc(O)cc1)C(O)c1ccc(O)cc1 (stereo unspecified) [Ritodrine HCl] | 0.82 | 1.23 | 1.21 | 1.05 | 0.9 | 0.74 |
| O=C(O)c1cc(=O)c2c(OCC(O)COc3cccc4oc(C(=O)O)cc(=O)c34)cccc2o1 [Disodium Cromoglycate] | 1.19 | 0.93 | 0.82 | 1.02 | 0.81 | 0.94 |
| CCN(C(=O)c1c(O)c2c(Cl)cccc2n(C)c1=O)c1ccccc1 [Laquinimod] | 1.03 | 0.89 | 0.71 | 0.9 | 0.6 | 0.99 |
| O=S(=O)(O)Oc1ccc(C(c2ccc(OS(=O)(=O)O)cc2)c2ccccn2)cc1 [Sodium Picosulfate] | 0.97 | 1.03 | 0.84 | 0.58 | 0.72 | 0.72 |
| O=C([O-])C(O)[C@H](O)[C@@H](O)[C@H](O)[C@H](O)CO.O=C([O-])C(O)[C@H](O)[C@@H](O)[C@H](O)[C@H](O)CO.[Ca+2] (stereo partly specified) [Calcium Gluceptate] | 0.68 | 0.56 | 0.8 | 0.86 | 0.67 | 0.61 |
| NS(=O)(=O)c1cc2c(cc1Cl)NCNS2(=O)=O [Hydrochlorothiazide] | 0.85 | 1.23 | 1.27 | 1.22 | 1.42 | 1.32 |
| OC[C@@H](O)[C@@H](O)[C@H](O)[C@H](O)CO [D-Mannitol] | 0.87 | 0.91 | 0.83 | 0.61 | 0.66 | 0.68 |
| O=C1CN(/N=C/c2ccc(-c3ccc([N+](=O)[O-])cc3)o2)C(=O)N1 [Dantrolene sodium hemiheptahydrate] | 0.81 | 0.76 | 0.89 | 1 | 0.93 | 1.03 |
| CCCCOc1ccc(OCCCN2CCOCC2)cc1 [Pramoxine HCl] | 1.1 | 0.85 | 1.34 | 0.64 | 0.88 | 0.78 |
| c1ccc2c(CC3=NCCN3)cccc2c1 [Naphazoline HCl] | 0.75 | 0.79 | 0.81 | 0.7 | 0.75 | 1.09 |
| NC(=O)N1c2ccccc2CC(=O)c2ccccc21 [Oxcarbazepine] | 0.81 | 1.14 | 1.19 | 1.05 | 0.95 | 1.28 |

Arranged by length of the SMILES (largest number first): some entries from above

| SMILES | growth (C. auris AR-384; 1 µM) | growth (C. auris AR-384; 10 µM) | growth (C. auris AR-386; 1 µM) | growth (C. auris AR-386; 10 µM) | growth (C. auris AR-387; 1 µM) | growth (C. auris AR-387; 10 µM) |
| --- | --- | --- | --- | --- | --- | --- |
| CO[C@H]1C[C@@H]2CC[C@@H](C)[C@@](O)(O2)C(=O)C(=O)N2CCCC[C@H]2C(=O)O[C@H]([C@H](C)C[C@@H]2CC[C@@H](OC(=O)C(C)(CO)CO)[C@H](OC)C2)CC(=O)[C@H](C)/C=C(\C)[C@@H](O)[C@@H](OC)C(=O)[C@H](C)C[C@H](C)/C=C/C=C/C=C/1C | 0.15 | 0.13 | 0.22 | 0.14 | 0.12 | 0.1 |
| NC(=O)[C@@H]1CSSCCC(=O)N[C@@H](CCCCN=C(N)N)C(=O)NCC(=O)N[C@@H](CC(=O)O)C(=O)N[C@@H](Cc2c[nH]c3ccccc23)C(=O)N2CCC[C@H]2C(=O)N1 [Eptifibatide Acetate] | 0.55 | 0.64 | 0.7 | 0.95 | 0.81 | 0.72 |
| CCOC(=O)C1=C(C)NC(C)=C(C(=O)OCC)C1c1ccccc1/C=C/C(=O)OC(C)(C)C [Lacidipine] | 1.04 | 0.75 | 1.05 | 1.14 | 0.69 | 0.86 |
| O=C(O)c1cc(=O)c2c(OCC(O)COc3cccc4oc(C(=O)O)cc(=O)c34)cccc2o1 [Disodium Cromoglycate] | 1.19 | 0.93 | 0.82 | 1.02 | 0.81 | 0.94 |
| O=C1CN(/N=C/c2ccc(-c3ccc([N+](=O)[O-])cc3)o2)C(=O)N1 [Dantrolene sodium hemiheptahydrate] | 0.81 | 0.76 | 0.89 | 1 | 0.93 | 1.03 |
| CC(C)C[C@H](NC(=O)CNC(=O)c1cc(Cl)ccc1Cl)B(O)O [Ixazomib (MLN2238)] | 0.94 | 1.07 | 0.81 | 1.07 | 0.72 | 1.1 |
| CCOC(=O)c1ccc(C#Cc2ccc3c(c2)C(C)(C)CCS3)nc1 [Tazarotene] | 1.34 | 1.14 | 0.98 | 0.98 | 0.97 | 1 |
| NS(=O)(=O)c1cc2c(cc1Cl)N=CNS2(=O)=O [Chlorothiazide] | 1.34 | 0.82 | 0.61 | 1.22 | 0.88 | 0.98 |
| NS(=O)(=O)c1cc2c(cc1Cl)NCNS2(=O)=O [Hydrochlorothiazide] | 0.85 | 1.23 | 1.27 | 1.22 | 1.42 | 1.32 |
| CC(NCCc1ccc(O)cc1)C(O)c1ccc(O)cc1 (stereo unspecified) [Ritodrine HCl] | 0.82 | 1.23 | 1.21 | 1.05 | 0.9 | 0.74 |
| c1ccc2c(c1)CCCC2C1=NCCN1 (stereo unspecified) [Tetrahydrozoline HCl] | 1.02 | 0.85 | 0.96 | 0.76 | 0.83 | 1.03 |
